Laboratory results published in PMC8622252.
No constants are given. Whether binding was seen depends on the method and setting. Binding seen in cells or lysates may run through a third protein. Some results given as binding are weak or reduced against the parent protein; the word gives no strength. Sequences can lack the tags named with a protein.

Target: T1, Flag-tagged bovine telomerase reverse transcriptase (bTERT) (bovine) (UniProt Q27ID4)
T1 sequence: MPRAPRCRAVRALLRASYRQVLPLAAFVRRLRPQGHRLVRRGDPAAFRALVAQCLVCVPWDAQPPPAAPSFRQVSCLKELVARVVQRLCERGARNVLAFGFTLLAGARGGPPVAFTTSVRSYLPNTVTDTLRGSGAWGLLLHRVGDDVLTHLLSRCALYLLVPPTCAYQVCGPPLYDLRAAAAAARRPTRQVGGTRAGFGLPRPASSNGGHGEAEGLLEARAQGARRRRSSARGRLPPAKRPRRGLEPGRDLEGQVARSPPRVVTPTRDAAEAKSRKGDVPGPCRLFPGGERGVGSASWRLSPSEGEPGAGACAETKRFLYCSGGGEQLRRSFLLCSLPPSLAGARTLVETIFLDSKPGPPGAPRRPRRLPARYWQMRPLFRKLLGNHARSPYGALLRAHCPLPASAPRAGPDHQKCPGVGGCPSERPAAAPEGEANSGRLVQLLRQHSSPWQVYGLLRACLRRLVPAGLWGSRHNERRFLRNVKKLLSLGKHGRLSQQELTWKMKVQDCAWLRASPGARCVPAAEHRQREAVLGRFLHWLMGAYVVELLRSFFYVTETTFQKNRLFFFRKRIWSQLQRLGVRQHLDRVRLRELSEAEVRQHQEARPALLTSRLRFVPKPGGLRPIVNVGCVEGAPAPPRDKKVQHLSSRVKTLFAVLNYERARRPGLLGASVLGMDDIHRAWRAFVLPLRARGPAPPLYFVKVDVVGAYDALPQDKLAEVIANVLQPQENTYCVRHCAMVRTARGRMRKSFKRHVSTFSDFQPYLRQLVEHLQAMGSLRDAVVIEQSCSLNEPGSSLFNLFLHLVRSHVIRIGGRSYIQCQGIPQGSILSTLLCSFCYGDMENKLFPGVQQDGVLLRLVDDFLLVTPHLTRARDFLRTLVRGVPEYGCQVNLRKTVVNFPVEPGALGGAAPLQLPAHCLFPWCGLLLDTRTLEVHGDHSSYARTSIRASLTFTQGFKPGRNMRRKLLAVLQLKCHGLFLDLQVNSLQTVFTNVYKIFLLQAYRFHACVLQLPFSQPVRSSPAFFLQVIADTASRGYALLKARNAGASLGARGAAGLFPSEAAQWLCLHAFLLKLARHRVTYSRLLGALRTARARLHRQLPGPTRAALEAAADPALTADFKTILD
Assay: co-IP; Flag-bTERT and HA-PINX1 transiently co-expressed in HEK-293T cells; whole-cell extracts in IP Lysis Buffer incubated overnight at 4 °C with FLAG mAb or control IgG, captured on Protein A/G agarose, Western blot (legend: Flag-bTERT or HA-PINX1 immunoprecipitated)

binding: binds
B1: HA-tagged PINX1 (protein, UniProt F6PXL9 1-309)
chain: MSMLAERRRKQKWAVDPRNTAWSNDDSKFGQRMLEKMGWSKGKGLGAQEQGATDHIKVQVKNNHLGLGATINNEDNWIAHQDDFNQLLAQLNTCHGQETADSPDNKEKKSFSLEEKSKISKNRVHYMKFTKGKDLSSRSQTDLDCIFGKRQKRTPEDHPSLSATEETDTSTTTTSAFTIHEYFARRMAERKSKAQGMAAGPEASETPVERKRGKKRKKEAKDKNVENHIQPKAKKKRNQVECELGDPRWDENPGAPAEAGEGHVGPLDNQDSPPKPKKRKEKEKGAKQVEAAVDSTLDETPVKKKKGSK
